Several values for one entry are separate records, joined by “and”; a condition that tells them apart may be missing. Equal values may be shown once. Hit rate of the full screen: of about 78,000 compounds, about 1,800 (2.3%) were called active. This list was built around the results that the source calls inconclusive (neither active nor inactive); the mix of calls is not that of the screen. No stated cut-off is given here; in the data, active means inhibition above about 30%; inconclusive means mostly about 10% to 28%; inactive means weaker than that.
Target: Interleukin-1 receptor-like 1 (Homo sapiens) (UniProt Q01638)
Experiment: blocks human ST2 binding to IL-33, primary screen, biochemical, AlphaLISA (AID 1259354)
Conditions: AlphaLISA ST2-Fc/biotin-IL-33 interaction, 1 h; at 17 µM, stronger effect = higher value

Chains of the proteins cited; added tags and fusions are not shown. Lines headed by an entry give the natural chain unless they say otherwise; changes in a name come on top.
UniProt Q01638: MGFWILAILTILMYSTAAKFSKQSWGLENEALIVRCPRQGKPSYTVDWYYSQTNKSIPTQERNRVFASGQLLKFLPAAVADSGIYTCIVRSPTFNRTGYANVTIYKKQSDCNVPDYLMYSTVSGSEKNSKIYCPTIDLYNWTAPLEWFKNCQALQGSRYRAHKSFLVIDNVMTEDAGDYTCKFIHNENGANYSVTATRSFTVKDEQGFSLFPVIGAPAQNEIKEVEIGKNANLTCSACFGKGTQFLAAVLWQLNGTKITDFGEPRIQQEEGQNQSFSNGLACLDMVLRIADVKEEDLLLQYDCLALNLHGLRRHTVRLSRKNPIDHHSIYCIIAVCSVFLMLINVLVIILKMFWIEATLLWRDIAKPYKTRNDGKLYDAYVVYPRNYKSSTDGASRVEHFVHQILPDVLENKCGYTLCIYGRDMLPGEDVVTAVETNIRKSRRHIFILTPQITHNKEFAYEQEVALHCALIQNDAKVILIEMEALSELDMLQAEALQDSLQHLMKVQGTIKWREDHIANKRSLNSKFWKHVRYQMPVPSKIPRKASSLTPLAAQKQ

Structure (SMILES)	inhibition
CC(C)Oc1ccc(CC2CC(=O)N(c3ccccc3)C2=O)cc1 (stereo not given)	inactive
COc1ccccc1C(=O)N[C@H]1C[C@@H](c2nc(-c3ccc(OC(F)(F)F)cc3)no2)N(C)C1	inconclusive: 15%
CC1=C(C(=O)Nc2ccccn2)C(c2cccc(Br)c2)C2=C(CC(C)(C)CC2=O)N1 (stereo not given)	inactive
CC(=O)c1cccc(Oc2nc(C)nc3sc4c(c23)CCCC4)c1	inconclusive: 13%
O=C(NCCc1ccsc1)c1ccc2c(Cl)c3c(nc2c1)CCCC3	inactive
Cc1ccc(CCN2C(=O)CCC2(C)C(=O)NC2CCCCCCC2)cc1 (stereo not given)	inactive
Cc1ccc2nc(-c3cc(N=Cc4cccc([N+](=O)[O-])c4)ccc3O)[nH]c2c1	active: 43%
CC1CCC(NC(=O)c2ccc(Cn3c(=O)[nH]c4ccsc4c3=O)cc2)CC1 (stereo not given)	inactive
O=C(CCS(=O)(=O)c1cccs1)NC1CCCCC1	inactive
Cc1[nH]c2ccccc2c1C=C1C(=O)OC2(CCCCC2)OC1=O	active: 48%
CCCCOc1ccc(S(=O)(=O)N2CCN(c3nc(C)cc(Nc4ccc(C)cc4)n3)CC2)cc1	inconclusive: 13%
COc1ccccc1N1CCN([C@@H]2[C@H](O)[C@H](CO)O[C@@H]2CNS(=O)(=O)c2ccccc2)CC1	inconclusive: 12%
C=CCN1C(=O)C(=O)C(=C(O)c2ccc(OC)cc2)C1c1ccc(F)cc1 (stereo not given)	inactive
COc1ccc(/C=C2\C(=O)Nc3ccc(Br)cc32)cc1O	inactive
C=CC[C@@H]1CC=C[C@@H](C)N1C(=O)c1cccc2ccnn12	inconclusive: 25%
COc1ccc(-c2cc(C(F)(F)F)nc(S[C@H]3C[C@@H](O)[C@@H]4OC[C@H]3O4)n2)cc1	inactive
Cn1c(=O)n(Cc2ccccc2)c(=O)c2c1[nH]c(=O)n2C	inconclusive: 14%
CCCNC(=O)COc1cc(C)ccc1C	inactive
O=C(Nc1cccc2cccnc12)c1cccc([N+](=O)[O-])c1	inconclusive: 17%
Cc1ccc(C(=O)Nc2ccc(N3CCC(NCCc4ccco4)CC3)cc2)c(C)c1	inconclusive: 19%
CCN1CCCC1CNC(=O)CCC1CCN(Cc2cc(OC)c3c(c2)OCO3)CC1 (stereo not given)	inconclusive: 19%
Cc1cccc(N=C2NC(=O)/C(=C\c3ccco3)S2)c1	active: 31%
Cc1cc(C)cc(NC(=O)c2cc3ccccc3o2)c1	inconclusive: 10%
COc1ccc(C(C2=C(O)CC(C)(C)CC2=O)C2C(=O)CC(C)(C)CC2=O)cc1CO (stereo not given)	inactive

Some values from the entries so far.
C=CC[C@@H]1CC=C[C@@H](C)N1C(=O)c1cccc2ccnn12 – inhibition: inconclusive: 25%
O=C(CCS(=O)(=O)c1cccs1)NC1CCCCC1 – inhibition: inactive
CC1=C(C(=O)Nc2ccccn2)C(c2cccc(Br)c2)C2=C(CC(C)(C)CC2=O)N1 (stereo not given) – inhibition: inactive

Later entries:

Structure (SMILES)	inhibition
N#Cc1c(NC(=O)c2noc3c2CCCC3)sc2c1CCCC2	inconclusive: 20%
CCCCc1nc(Cl)c(CN2CCCC(N3CCCC3=O)C2)[nH]1 (stereo not given)	inconclusive: 11%
CSc1ccc(-c2nc(C(N)=O)c3c(n2)n(-c2ccc(C)c(C)c2)c(=O)n3C)cc1	inconclusive: 12%
Nc1nccc(N2CCc3onc(-c4ccc5c(c4)OCO5)c3C2)n1	inconclusive: 24%
Cc1ccc(-c2nc3cccc(C)n3c2Nc2ccc3c(c2)OCCO3)o1	inconclusive: 29%
COc1cc(-c2nc(N)n[nH]2)cc(OC)c1OC	inconclusive: 11%
O=C(NC(Nc1ccccc1F)C(Cl)(Cl)Cl)c1ccc(Br)cc1 (stereo not given)	inactive
O=C(COc1ccccc1Cl)NCCN1CCOCC1	inconclusive: 16%
CC(C)c1ncc(C(=O)N2CCN(C)C3(CCN(C)CC3)C2)c(=O)[nH]1	inconclusive: 12%
CC(C)n1cnnc1CN(C)c1nccc(CCC(F)(F)F)n1	inactive
O=C(CN1C(=O)S/C(=C\c2ccc(Cl)cc2)C1=O)Nc1cccnc1	inconclusive: 27%
O=C1C(c2cccc(Br)c2)N(C2CCCCC2)C(=O)CN1C1CCCCC1 (stereo not given)	inconclusive: 13%
Cn1c(-c2nonc2NC(=O)CSc2nc3ccccc3o2)nc2ccccc21	inactive
COc1ccc(C=C2C(=O)OC(c3ccccc3)OC2=O)c(OC)c1OC (stereo not given)	inconclusive: 20%
Cc1cc(-n2nc(C)cc2C)nc(-c2ccccc2O)n1	inconclusive: 18%
c1ccc2c(c1)CCN(C1CCCN(Cc3cc4ccccc4o3)C1)C2 (stereo not given)	inconclusive: 22%
COc1ccccc1C1CC(c2ccccc2Cl)Nc2ncnn21 (stereo not given)	inconclusive: 11%
CCC(C)(C)NC(=O)C1CCC(CNS(=O)(=O)c2cccc3nsnc23)CC1 (stereo not given)	inconclusive: 22%
Cc1c(Cl)c([N+](=O)[O-])nn1CC(=O)Nc1cc(-c2ccc(Cl)cc2)nn1C	inconclusive: 16%
Oc1ccc(Cn2cc[nH]c2=S)cc1	inconclusive: 20%
Cc1ccc(-c2noc(CCC(=O)NCCCN3CC(C)CC(C)C3)n2)cc1 (stereo not given)	inactive
COc1cccc(-n2c(=O)[nH]cc(C(=O)Nc3ccc4c(c3)OCO4)c2=O)c1	inactive
N#C/C(=C\c1ccco1)c1nc(-c2ccc(Br)cc2)cs1	active: 32%
COc1ccc2[nH]cc(CCN3C(=O)C4CCCCC4C3=O)c2c1 (stereo not given)	inconclusive: 14%

Structure (SMILES)	inhibition
Cc1nc(N2CCOCC2)c2c(C)c(C(=O)N3CC(C)CC(C)C3)sc2n1 (stereo not given)	inactive
CCCCN1CCN(c2cc(C)nc(-c3cccnc3)n2)CC1=O	inactive
CCOc1ccc(/C=C2\N=C(c3ccccc3Br)OC2=O)cc1	inconclusive: 22%
CC[C@H]1CN(C(=O)c2ccc(F)cc2)CC[C@H]1CC(=O)NCc1ccccc1	inconclusive: 17%
COc1ccc(NC(=O)CSc2nc3c(c(=O)n2-c2ccccc2OC)SCC3)cc1	inconclusive: 13%
CC(C)C(NC(=O)C1CCCCC1)C(=O)Nc1ccc2c(c1)OCCO2 (stereo not given)	inconclusive: 14%
CC(C)=Cc1oc2c(Cl)cc(Cl)cc2c1N1CCOCC1	active: 30%
Cc1oc2ccc(O)cc2c1[N+](=O)[O-]	inconclusive: 11%
O=C(Nc1cccc(-c2cccc(F)c2)c1)C1CCN(Cc2cccs2)CC1	inconclusive: 18%
Cc1cc(N(C)C)nc(Nc2ccc(NC(=O)c3ccc(Cl)cc3)cc2)n1	inconclusive: 13%
Cn1c(SCC(=O)NCCc2ccccc2)nc2c([nH]c3ccccc32)c1=O	inconclusive: 14%
O=C(O)c1cc(-c2cccnc2)nc2ccc(S(=O)(=O)N3CCCCCC3)cc12	inconclusive: 15%
C=CCNC(=O)c1ccc(-c2cc(OC)ccc2F)o1	inconclusive: 17%
Cc1cc2ccccc2n1CCNC(=O)C(C)(C)Oc1ccc(Cl)cc1	inconclusive: 20%
COc1ccc2cc3cc(C(=O)Nc4cccc(SC)c4)oc3nc2c1	active: 34% and inconclusive: 29%
CC(=O)NCCNS(=O)(=O)NCc1ccccc1	inconclusive: 10%
CC(=O)c1cc(CN2CCN(c3nc(-c4ccccc4)nc4c3CCC4)CC2)cs1	inconclusive: 23%
COc1ccc(O)c(CN2CCC3(CCCN(CCc4ccccc4)C3)C2)c1 (stereo not given)	inconclusive: 22%
CN(CC1CCCCO1)S(=O)(=O)NCc1ccccc1 (stereo not given)	inconclusive: 27%
COc1cc(C(=O)N2CC[C@H](CO)[C@H](O)C2)ccn1	inactive
COc1ccc(NC(=O)c2ccc(Br)cc2)c2ncccc12	inconclusive: 11%
O=C(Nc1c(-c2ccc(F)cc2)nc2ccccn12)c1ccc2c(c1)OCO2	inactive
Cc1c(Cl)ccc(S(=O)(=O)N2CCN(c3ccc(F)cc3)CC2)c1Cl	inactive
CN1C[C@@H](NS(=O)(=O)c2ccccc2)C[C@H]1c1nc(-c2ccc(F)cc2)no1	inconclusive: 18%

Structure (SMILES)	inhibition
COc1ccc(C(=O)Nc2cccc(OCc3cc(=O)n4cc(Cl)ccc4n3)c2)cc1	inconclusive: 15%
C=CCNC(=O)Nc1ccc(Cl)cc1	inconclusive: 16%
CN(Cc1ccnc2ccccc12)C(=O)[C@@H]1CCCCN1	inactive
COc1ccc(-c2ccc(C(=O)NCc3nnc4n3CCCC4)o2)cc1	inconclusive: 16%
Cc1ccc(CNC(=O)CCc2nnc(-c3ccc4c(c3)OCO4)o2)c(F)c1F	inconclusive: 10%
O=C1N=C(N2CCOCC2)S/C1=C/C=C/c1ccccc1	inconclusive: 23%
COC(=O)c1ccc(CN2CCCC(C(=O)Nc3cccc(-n4cccn4)c3)C2)cc1 (stereo not given)	inconclusive: 11%
O=C(Nc1cccc(F)c1)Nc1ccc2n(c1=O)C[C@H]1C[C@@H]2CN(C(=O)Cc2cccs2)C1	inactive
CC(C)N(CC1COc2ccccc2O1)C(=O)CN1CCCN(C)CC1 (stereo not given)	inconclusive: 14%
CC12c3ccccc3C(c3ccccc31)[C@@H]1C(=O)N(c3ccccc3[N+](=O)[O-])C(=O)C12 (stereo not given in full)	inconclusive: 26%
Cc1ccc2oc(=O)n(CC(=O)N(Cc3ccsc3)CC(C)C)c2c1	inactive
COc1cccc2c1OCC(C(=O)NC1CCC(n3cnnc3)CC1)C2 (stereo not given)	inconclusive: 13%
Cc1cc(Cl)ccc1NC(=O)Cc1cccs1	inactive
COc1cccc(N2CCN(Cc3ccco3)CC2)c1	inconclusive: 24%
CC1C(=O)N(C)CCN1C(=O)c1cn[nH]c1-c1cccc(F)c1 (stereo not given)	inactive
CSc1ccc(C2C(C#N)=C(N)OC3=C2C(=O)CCC3)cc1 (stereo not given)	inconclusive: 15%
COc1ccccc1N1CCN(CCN(C(=O)c2ccc(F)cc2)c2ccccn2)CC1	inconclusive: 19%
COc1ccc(NC(=O)CC(=O)N2CCN(C)C3(CCN(C)CC3)C2)cc1	inconclusive: 20%
CCOc1ccc(Cn2c(CNS(=O)(=O)c3ccc(C)cc3C)nc3cccnc32)cc1	inactive
Cc1ccc(Nc2nc(-c3ccccc3)cs2)cc1	inactive
COc1ccc(C(=O)c2sc3nc(N)c(C#N)cc3c2N)cc1OC	inconclusive: 16%
COCC(=O)NC(C)c1nc2ccccc2n1C (stereo not given)	inactive
CC(C)c1nc2cc(C(=O)N3CCSCC3)ccc2o1	inconclusive: 13%

Some of the entries above, set out differently.
Structure (SMILES) | inhibition
CC(C)c1ncc(C(=O)N2CCN(C)C3(CCN(C)CC3)C2)c(=O)[nH]1 | inconclusive: 12%
Cc1oc2ccc(O)cc2c1[N+](=O)[O-] | inconclusive: 11%
O=C(Nc1c(-c2ccc(F)cc2)nc2ccccn12)c1ccc2c(c1)OCO2 | inactive

Reference: PubChem BioAssay AID1259354 (Paczesny and Yang Labs, IUPUI and University of Michigan, 2018)
